# At least one structure is not confirmed: it was looked up by name or label, or the drawing left a doubt.
# Tested on: steroid-resistant asthma
# Assay: Ovalbumin/LPS/IFNγ-based mouse model of steroid-resistant asthma
# Assay type: in vivo
# Settings: without LPS/IFNγ priming
# Procedure: (§1) Balb/c mice were sensitized by i.p. injection of 20 μg of Ova in 2.25 mg aluminium hydroxide on days 1 and 14. Steroid resistance was induced by intranasal instillation of Lps (10 μg/mouse) on day 27. Mice were treated with s.c injection of dexmethasone (5 mg/kg) on days 29 and 30. Mice were challenged with aerosolized 1% OVA on days 28, 29, 30 for 20 minutes. Airway hyper responsiveness was measured using plesthesmography 24 hours after the last OVA challenge. Statistics are not included.
# as §1, with “Balb I c” for “Balb/c”, “µg/mouse)” for “μg/mouse)”, “All mice were euthanized 48” for “Airway hyper responsiveness was measured using plesthesmography 24”, “challenge then subjected to broncholaveolar lavage. Inflammatory cells were differentiated and assessed using Diff Quick staining.” for “challenge.”
# Balb/c mice were sensitized by i.p. injection of 20 μg of Ova in 2.25 mg aluminium hydroxide on days 1 and 14. Steroid resistance was induced by intranasal instillation of Lps (10 μg/mouse) on day 27. […] Cytokines were measured in the collected serum and BAL fluid using multiplex assay. And IgE production was assessed busing sandwich ELISA. […]
structure (smiles),measurement,value
C[C@@H]1C[C@H]2[C@@H]3CCC4=CC(=O)C=C[C@]4(C)[C@@]3(F)[C@@H](O)C[C@]2(C)[C@@]1(O)C(=O)CO [dexamethasone],Th2 response after sensitization to and challenge with OVA,completely blocked
